The assay concerns the target N-terminal 3xFLAG-tagged TCF-4 (UniProt Q9NQB0). The experiment in a line: co-IP; Neuro-2a cells transfected with 3xFLAG-TCF-4 and treated with control CM, Wnt3a CM or GO (0.5 mM)-treated Wnt3a CM; lysis in IP buffer (50 mM Tris/HCl pH 8.0, 150 mM NaCl, 5 mM EDTA, 1% Triton X-100); IP with anti-FLAG M2 on Protein A-sepharose CL-4B for 2 h, 3 washes; Western blot for endogenous β-catenin.

Sequences of proteins named here, by UniProt entry; tags and fusion partners are left off.
UniProt Q9NQB0: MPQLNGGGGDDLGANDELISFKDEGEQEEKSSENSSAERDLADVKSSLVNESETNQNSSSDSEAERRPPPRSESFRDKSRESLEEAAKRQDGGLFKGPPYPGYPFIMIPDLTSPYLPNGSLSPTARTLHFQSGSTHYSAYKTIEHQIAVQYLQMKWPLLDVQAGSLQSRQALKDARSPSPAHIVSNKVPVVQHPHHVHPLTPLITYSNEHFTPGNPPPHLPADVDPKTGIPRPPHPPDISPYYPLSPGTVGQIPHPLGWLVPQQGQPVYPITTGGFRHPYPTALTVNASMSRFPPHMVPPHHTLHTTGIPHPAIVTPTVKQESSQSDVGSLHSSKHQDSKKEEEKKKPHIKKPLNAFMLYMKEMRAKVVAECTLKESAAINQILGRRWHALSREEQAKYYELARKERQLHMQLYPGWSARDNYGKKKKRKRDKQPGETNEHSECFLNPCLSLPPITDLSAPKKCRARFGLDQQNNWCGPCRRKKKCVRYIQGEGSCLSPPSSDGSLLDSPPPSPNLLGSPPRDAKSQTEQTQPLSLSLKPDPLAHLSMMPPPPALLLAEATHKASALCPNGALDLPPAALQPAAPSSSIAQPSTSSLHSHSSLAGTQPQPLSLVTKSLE
UniProt Q02248: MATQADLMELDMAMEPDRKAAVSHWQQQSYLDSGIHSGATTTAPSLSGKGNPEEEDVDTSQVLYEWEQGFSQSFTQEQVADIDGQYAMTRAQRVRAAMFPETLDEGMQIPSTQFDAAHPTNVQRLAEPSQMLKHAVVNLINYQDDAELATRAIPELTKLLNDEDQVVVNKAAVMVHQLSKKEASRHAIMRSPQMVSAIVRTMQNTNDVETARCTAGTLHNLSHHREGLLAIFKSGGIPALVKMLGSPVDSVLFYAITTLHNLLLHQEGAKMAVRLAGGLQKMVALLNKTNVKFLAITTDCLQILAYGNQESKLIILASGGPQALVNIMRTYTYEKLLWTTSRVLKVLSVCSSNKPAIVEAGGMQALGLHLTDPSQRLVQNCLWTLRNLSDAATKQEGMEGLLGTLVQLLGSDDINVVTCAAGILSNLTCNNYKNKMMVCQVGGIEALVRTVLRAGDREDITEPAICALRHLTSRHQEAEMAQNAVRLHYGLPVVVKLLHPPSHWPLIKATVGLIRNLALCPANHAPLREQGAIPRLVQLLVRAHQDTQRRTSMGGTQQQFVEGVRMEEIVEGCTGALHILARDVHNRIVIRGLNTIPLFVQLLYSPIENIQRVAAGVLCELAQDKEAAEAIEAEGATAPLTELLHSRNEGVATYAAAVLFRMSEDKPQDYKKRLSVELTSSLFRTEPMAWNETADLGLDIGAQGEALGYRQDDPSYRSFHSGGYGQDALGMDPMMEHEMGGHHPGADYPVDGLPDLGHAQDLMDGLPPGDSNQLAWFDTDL

No constants are given. Whether binding was seen depends on the method and setting. Binding seen in cells or lysates may run through a third protein. Some entries that bind do so weakly or less than the wild type.

β-catenin (from UniProt Q02248 1-781): the binding entry was “binds”.

(Values after publication PMC6912562.)
